Structures can show the parent of a compound that is named as a salt. ± gives the standard deviation of the averaged measurements. Some of the results follow. Values are raw readings; no control value is given beside them.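 Ribosome-assembly readouts in HeLa cells were imaged via ENP1 staining, with or without export block, or inducible tagged ribosomal protein reporters. Machine learning classified per-cell signal location versus solvent (DMSO) controls. Hits surpassed the DMSO false-positive mean by five standard deviations and were visually confirmed; three biological replicates.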

The test system of this assay is HeLa RPL29-GFP reporter. In words: fraction of reporter-positive cells with nuclear (nucleolar or nucleolar/nucleoplasmic) RPL29-GFP (MainHitrate); higher = more cells with nucleolar/nuclear readout signal (for ENP1 -LMB: less RNAPI inhibition; for +LMB ENP1 and RP reporters: stronger nuclear/nucleolar retention, i.e. ribosome biogenesis defect). To be noted: concentration: 1 µM; treatment time: 6 h.
Turning to `CO[C@H]1C[C@@H]2CC[C@@H](C)[C@@](O)(O2)C(=O)C(=O)N2CCCC[C@H]2C(=O)O[C@H]([C@H](C)C[C@@H]2CC[C@@H](OC(=O)C(C)(CO)CO)[C@H](OC)C2)CC(=O)[C@H](C)/C=C(\C)[C@@H](O)[C@@H](OC)C(=O)[C@H](C)C[C@H](C)/C=C/C=C/C=C/1C` [Temsirolimus (Torisel)], the “fraction of reporter-positive cells with nuclear” value (“fraction” below) was determined as 0.305 ± 0.042.

`COc1cc(NC(C)CCCN)c2ncccc2c1` (stereo not given) [Primaquine Diphosphate]: the “fraction” value is 0.211 ± 0.087.

On to `Clc1ccc(C(c2ccccc2Cl)C(Cl)Cl)cc1` (stereo not given) [Mitotane (Lysodren)], for which the “fraction” value came out at 0.215 ± 0.058.

For `CC(C)C[C@H](NC(=O)[C@@H](O)[C@H](N)Cc1ccccc1)C(=O)O` [Ubenimex (Bestatin)], the “fraction” value came to 0.188 ± 0.08.

Turning to `Cc1ccc(C(=O)c2cc(O)c(O)c([N+](=O)[O-])c2)cc1` [Tolcapone], the “fraction” value worked out at 0.225 ± 0.073.

On to `CO[C@H]1/C=C/O[C@@]2(C)Oc3c(C)c(O)c4c(c3C2=O)C2=NC3(CCN(CC(C)C)CC3)NC2=C(NC(=O)/C(C)=C\C=C\[C@H](C)[C@H](O)[C@@H](C)[C@@H](O)[C@@H](C)[C@H](OC(C)=O)[C@@H]1C)C4=O` [Rifabutin (Mycobutin)], for which the “fraction” value stood at 0.205 ± 0.064.

As for `COC(=O)[C@@H]1CC2=CC(=O)CC[C@]2(C)[C@@]23O[C@@H]2C[C@@]2(C)[C@@H](CC[C@@]24CCC(=O)O4)[C@H]13` [Eplerenone], the “fraction” value was found to be 0.189 ± 0.083.

For `O=c1c(-c2ccc(O)cc2)coc2cc(O)cc(O)c12` [Genistein], the “fraction” value was 0.231 ± 0.055.

Turning to `Nc1cccc2c1CN(C1CCC(=O)NC1=O)C2=O` (stereo not given) [Lenalidomide], the “fraction” value stood at 0.216 ± 0.069.

Regarding `CCCCCCCCOc1ccccc1C(=O)Nc1ccc(C(=O)OCC[N+](C)(CC)CC)cc1` [Otilonium Bromide], the “fraction” value worked out at 0.224 ± 0.058.

As for `CCN(CC)CCOC(=O)C1(C2CCCCC2)CCCCC1` [Dicyclomine HCl], the “fraction” value was 0.294 ± 0.24.

In the case of `CCCC(=O)O[C@]1(C(=O)COC(C)=O)CC[C@H]2[C@@H]3C[C@H](F)C4=CC(=O)C=C[C@]4(C)[C@@]3(F)[C@@H](O)C[C@@]21C` [Difluprednate], the “fraction” value was 0.257 ± 0.085.

As to `N#Cc1c(N(CC(=O)O)CC(=O)O)sc(C(=O)O)c1CC(=O)O` [Strontium ranelate (Protelos)], the “fraction” value came to 0.237 ± 0.098.

`C[C@@H]1C[C@H]2[C@@H]3CCC4=CC(=O)C=C[C@]4(C)[C@@]3(F)[C@@H](O)C[C@]2(C)[C@@]1(O)C(=O)CO` [Dexamethasone]: the “fraction” value is 0.232 ± 0.043.

For `C[C@@H]1CCC[C@H](C)N1NC(=O)c1ccc(Cl)c(S(N)(=O)=O)c1` [Clopamide], the “fraction” value amounted to 0.269 ± 0.17.

With `Nc1cccc2c1C(=O)N(C1CCC(=O)NC1=O)C2=O` (stereo not given) [Pomalidomide], the “fraction” value is 0.206 ± 0.045.

Take `NC1CCN(c2c(F)cc3c(=O)c(C(=O)O)cn(C4CC4)c3c2Cl)C1` (stereo not given) [Clinafoxacin HCl]: the “fraction” value came to 0.307 ± 0.23.

As for `CO/N=C(\C(=O)N[C@@H]1C(=O)N2C(C(=O)OCOC(=O)C(C)(C)C)=C(/C=C\c3scnc3C)CS[C@H]12)c1csc(N)n1` [Cefditoren pivoxil], the “fraction” value stood at 0.216 ± 0.067.

For the compound `COC(=O)CCc1ccc(OCC(O)CNC(C)C)cc1` (stereo not given) [Esmolol HCl], the “fraction” value is 0.213 ± 0.045.

As for `Nc1ccn([C@@H]2O[C@H](CO)[C@@H](O)[C@@H]2O)c(=O)n1` [Cytarabine], the “fraction” value was determined as 0.148 ± 0.061.

As for `Cc1cn(-c2cc(NC(=O)c3ccc(C)c(Nc4nccc(-c5cccnc5)n4)c3)cc(C(F)(F)F)c2)cn1` [Nilotinib (AMN-107)], the “fraction” value was determined as 0.186 ± 0.045.

Consider `CCOC(=O)c1ccc(N)cc1` [Benzocaine], for which the “fraction” value stood at 0.211 ± 0.051.

For `CCN(Cc1ccncc1)C(=O)C(CO)c1ccccc1` (stereo not given) [Tropicamide], the “fraction” value was 0.212 ± 0.085.

Consider `CC(N/C(=N\C#N)Nc1ccncc1)C(C)(C)C` (stereo not given) [Pinacidil], for which the “fraction” value was found to be 0.273 ± 0.17.

Regarding `NC[C@@H]1O[C@H](O[C@H]2[C@@H](O)[C@H](O[C@@H]3[C@@H](O)[C@H](N)C[C@H](N)[C@H]3O[C@H]3O[C@H](CO)[C@@H](O)[C@H](O)[C@H]3N)O[C@@H]2CO)[C@H](N)[C@@H](O)[C@@H]1O` [Paromomycin Sulfate], the “fraction” value came out at 0.203 ± 0.049.

As to `CCCC(=O)[O-].[Na+]` [Sodium butyrate], the “fraction” value was 0.212 ± 0.076.

On to `CC(C(=O)O)c1cccc(Oc2ccccc2)c1` (stereo not given) [Fenoprofen calcium hydrate], for which the “fraction” value worked out at 0.202 ± 0.059.

With `CCOC(=O)O[C@]1(C(=O)OCCl)CC[C@H]2[C@@H]3CCC4=CC(=O)C=C[C@]4(C)[C@H]3[C@@H](O)C[C@@]21C` [Loteprednol etabonate], the “fraction” value was found to be 0.284 ± 0.028.

Turning to `O=C(O)c1ccc(-n2nc(-c3ccccc3O)nc2-c2ccccc2O)cc1` [Deferasirox (Exjade)], the “fraction” value was 0.218 ± 0.07.

As for `NC(=O)N/N=C/c1ccc([N+](=O)[O-])o1` [Nitrofurazone (Nitrofural)], the “fraction” value stood at 0.21 ± 0.071.

With `CCCCOc1ccc(C(=O)CCN2CCCCC2)cc1` [Dyclonine HCl], the “fraction” value was determined as 0.225 ± 0.049.

In the case of `CC[C@@H](CO)NCCN[C@@H](CC)CO` [Ethambutol HCl], the “fraction” value came out at 0.21 ± 0.068.

`CO/N=C(\C(=O)N[C@@H]1C(=O)N2C(C(=O)O)=C(CSC(=O)c3ccco3)CS[C@H]12)c1csc(N)n1` [Ceftiofur hydrochloride]: the “fraction” value was 0.214 ± 0.068.

Regarding `Cn1c(CNc2ccc(C(=N)N)cc2)nc2cc(C(=O)N(CCC(=O)O)c3ccccn3)ccc21` [BIBR 953 (Dabigatran etexilate, Pradaxa)], the “fraction” value is 0.239 ± 0.088.

With `Cc1ccccc1N1C(=O)c2cc(S(N)(=O)=O)c(Cl)cc2NC1C` (stereo not given) [Metolazone (Zaroxolyn)], the “fraction” value was found to be 0.217 ± 0.057.

As to `CC(=O)Oc1ccccc1C(=O)Nc1ncc([N+](=O)[O-])s1` [Nitazoxanide (Alinia, Annita)], the “fraction” value stood at 0.202 ± 0.09.

For `CCC(C)n1ncn(-c2ccc(N3CCN(c4ccc(OCC5COC(Cn6cncn6)(c6ccc(Cl)cc6Cl)O5)cc4)CC3)cc2)c1=O` (stereo not given) [Itraconazole (Sporanox)], the “fraction” value was found to be 0.217 ± 0.034.

On to `COc1cc(C)c(/C=C/C(C)=C/C=C/C(C)=C/C(=O)O)c(C)c1C` [Acitretin], for which the “fraction” value worked out at 0.198 ± 0.087.

With `O=C(NCCO[N+](=O)[O-])c1cccnc1` [Nicorandil (Ikorel)], the “fraction” value came to 0.24 ± 0.14.

Regarding `COc1cccc2c1C(=O)c1c(O)c3c(c(O)c1C2=O)C[C@@](O)(C(C)=O)C[C@@H]3O[C@H]1C[C@H](N)[C@H](O)[C@H](C)O1` [Daunorubicin HCl (Daunomycin HCl)], the “fraction” value stood at 0.702 ± 0.44.

The record behind these values is the supplement of paper PMC12542422.
